# Values quoted from earlier work, collected in article PMC8920097, “Prediction of hERG inhibition of drug discovery compounds using biomimetic HPLC measurements” (ADMET & DMPK, 2021).
# Test system: hERG channel
# Conditions: literature values, mean where several reported, molar; cited from earlier work
compound,measurement,value
CN1C2CCCC1CC(NC(=O)c1nn(C)c3ccccc13)C2 (stereo not shown) [Granisetron],hERG pIC50,4.65
